A short description of this experiment: growth inhibition of WT strain, primary screen, mitochondrial fusion inhibitor project, WT and mutant strains, chemical genetic (AID 1362). Particulars: mitochondrial fusion phenotypic screen, at 10 µM.

Each structure is given as a SMILES string. This is a selection; strong and weak results do not stand in their true shares. Activity calls are given as the source filed them. Rule as the data show it: active = inhibition above about 58%; inactive = the rest, inconclusive results apart; tested in S. cerevisiae.

With `CN[C@H]1C[C@H]2O[C@@](C)([C@H]1OC)n1c3ccccc3c3c4c(c5c6ccccc6n2c5c31)C(=O)NC4`, the inhibition (WT strain, growth inhibition, stronger effect = higher value) is active: 72% and the inhibition (mutant strain inhibition) came to 69.3%.

Source of the values: PubChem BioAssay AID1362 (SRMLSC, 2008).
